According to PubChem BioAssay AID1347075 (National Center for Advancing Translational Sciences (NCATS), 2019):
Out of some 400,000 compounds screened, about 5,500 (1.4%) were called active. Inconclusive results, whose numbers are uncertain, are shown with a selection of clear calls. Calls follow the shape of the dose curve; as a rule, active = well fitted cell-killing curve with a large enough effect; inconclusive = small, poorly fitted or top-dose-only effect, or effect the other way; inactive = flat fitted curve, though single readings scatter. Potencies of inconclusive entries are doubtful fits and often do not repeat.

Test: qHTS assay for MDR1-selective chemotherapeutics: Primary screen using the parental adenocarcinoma cell KB-3-1; also: nearly all actives have a fitted effect of over 60% in size
Conditions: KB-3-1 viability, CellTiter-Glo ATP luminescence, 72 h; activity change, negative = cytotoxic: at 46.1 µM (top of the series)
How it was run: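 Cells are dispensed, compounds pinned in, plates held at 37 °C for 72 h, then CellTiter-Glo is added and luminescence read after 10 minutes. Cell line: parental KB-3-1 in phenol-red-free DMEM, 10% FBS.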
% is scaled to controls: 0 for no effect and ±100 for the full control effect; potency is read from the fitted curve at half-maximal effect.

SMILES | Potency | activity change, negative = cytotoxic
COC(=O)c1ccc(/C=C(\C#N)c2nc3ccccc3s2)cc1 | inactive | –
Cc1cccc(N2CCN(S(=O)(=O)c3ccc4c(c3)C(C)(C)C(=O)N4C)CC2)c1C | inconclusive: 29.1 µM [cytotoxic, single point] | –
O=C(CCC1CCCN(C(=O)c2ccccc2Cl)C1)N1CCN(c2ccccn2)CC1 (configuration not stated) | inconclusive: 5.8 µM [cytotoxic, full curve] | –
N#Cc1c([N+](=O)[O-])cc([N+](=O)[O-])cc1S(=O)(=O)Cc1ccccc1 | active: 23.1 µM | –
CC(C)(C)c1ccc(C(=O)Nc2ccc(C(=O)OCc3cc(=O)n4ccsc4n3)cc2)cc1 | inactive | –
COc1cc2c(cc1OC)C(C(N)=O)NCC2 (configuration not stated) | inactive | –
Cc1cc(NC(=O)c2cc(-c3cccnc3)nc3c(C)c(C)ccc23)no1 | inconclusive: 29.1 µM [cytotoxic, single point] | –
CCN1CCCC1CNC(=O)Cn1nc(C)n2c(cc3cc(F)ccc32)c1=O (configuration not stated) | inconclusive: 16.4 µM [rising, partial curve, poor fit] | –
CCOC(=O)C1=C(N)Oc2ccc3ccccc3c2C1c1cccnc1 (configuration not stated) | inconclusive: 35.5 µM [cytotoxic, single point] | –
COCCNC(=O)CSc1nc(N)c(NC(=O)c2ccccc2F)c(=O)[nH]1 | – | inconclusive: -0.0119%
CC1(C)N=C(N)N=C(N)N1c1ccc(OCC(=O)N2CCOCC2)c(Cl)c1 | inconclusive: 1.03 µM [cytotoxic, full curve, poor fit] | –
Cc1ccc(C)c(CSc2nc3[nH]ncc3c(=O)[nH]2)c1 | active: 1.16 µM | –
Cc1cccc(OCc2n[nH]c(=S)o2)c1 | – | inconclusive: 55.1%
COc1cccc(C(=O)Nc2c[nH]c(=O)[nH]c2=O)c1 | inconclusive: 18.4 µM [cytotoxic, single point] | –
CC(=O)N1CCN(C2=NC(=O)/C(=C/c3ccc(OS(=O)(=O)c4ccccc4)cc3)S2)CC1 | inconclusive: 32.6 µM [cytotoxic, single point] | –
COc1ccc(CN(Cc2ccc(OC)cc2)S(=O)(=O)c2ccc(-n3cnnn3)c(C)c2)cc1 | inconclusive: 29.1 µM [cytotoxic, single point] | –
CCCS(=O)(=O)c1c(S(=O)(=O)CCC)c2cnccn2c1C(=O)c1ccc(CC)cc1 | inconclusive: 29.1 µM [cytotoxic, single point] | –
COc1ccc(NC(=O)Cc2ccc(-c3ccccc3)cc2)cn1 | inconclusive: 23.1 µM [cytotoxic, single point] | –
Cc1cc2occ(CC(=O)N(CCC(C)C)c3c(N)n(Cc4ccccc4)c(=O)[nH]c3=O)c2cc1C | inconclusive: 29.1 µM [cytotoxic, single point] | –
O=C1/C(=C/c2ccc(N3CCCC3)cc2)NC(=S)N1C1CC1 | inactive | –
CCSc1nnc(NC(=O)c2nc(S(=O)(=O)Cc3ccc(F)cc3)ncc2Cl)s1 | inconclusive: 29.1 µM [cytotoxic, single point] | –
CCN1C(=O)[C@H]2[C@@H](c3ccc(-c4cccc(Cl)c4)c(OC)c3)N3CCC[C@@]3(C(=O)OC)[C@H]2C1=O | inconclusive: 29.1 µM [cytotoxic, single point] | –
O=C(O)COc1ccccc1/C=N/NC(=O)C(O)c1ccccc1 (configuration not stated) | inconclusive: 5.8 µM [rising, partial curve] | –
CN(C)CC1CCC/C(=C\c2ccc(OC(=O)c3ccc(Cl)cc3)cc2)C1=O (configuration not stated) | inconclusive: 16.4 µM [cytotoxic, single point] | –

Sorted by count of non-hydrogen atoms (descending): some entries from above
SMILES | Potency | activity change, negative = cytotoxic
CC(=O)N1CCN(C2=NC(=O)/C(=C/c3ccc(OS(=O)(=O)c4ccccc4)cc3)S2)CC1 | inconclusive: 32.6 µM [cytotoxic, single point] | –
CCCS(=O)(=O)c1c(S(=O)(=O)CCC)c2cnccn2c1C(=O)c1ccc(CC)cc1 | inconclusive: 29.1 µM [cytotoxic, single point] | –
CCSc1nnc(NC(=O)c2nc(S(=O)(=O)Cc3ccc(F)cc3)ncc2Cl)s1 | inconclusive: 29.1 µM [cytotoxic, single point] | –
CC1(C)N=C(N)N=C(N)N1c1ccc(OCC(=O)N2CCOCC2)c(Cl)c1 | inconclusive: 1.03 µM [cytotoxic, full curve, poor fit] | –
COc1ccc(NC(=O)Cc2ccc(-c3ccccc3)cc2)cn1 | inconclusive: 23.1 µM [cytotoxic, single point] | –
O=C1/C(=C/c2ccc(N3CCCC3)cc2)NC(=S)N1C1CC1 | inactive | –

Further results.

SMILES | Potency | activity change, negative = cytotoxic
O=C(c1ccc(Cl)cc1)c1c[nH]c(C(=O)C(Cl)(Cl)Cl)c1 | inconclusive: 29.1 µM [cytotoxic, single point] | –
CCc1ccc(NC(=O)c2cc3c(COC(C)=O)cnc(C)c3oc2=O)cc1 | inactive | –
NS(=O)(=O)c1ccc(NC(=S)Nc2ccc(S(=O)(=O)N3CCCC3)cc2)cc1 | inactive | –
COCCn1c(C)nnc1SCC(=O)NNC(=O)c1ccc(Cl)cc1 | inconclusive: 29.1 µM [rising, single point] | –
COc1ccc2sc(-c3ccccc3OC)c(-c3ccc(OCCN4CCCC4)cc3)c2c1 | inconclusive: 29.1 µM [cytotoxic, single point] | –
Cc1cccc(OCC(=O)NNC(=O)C2CCN(c3ncnc4sc(C)c(C)c34)CC2)c1 | inactive | –
Fc1ccc(Br)cc1C1C=C(c2ccc(Br)cc2)Nc2ncnn21 (configuration not stated) | inactive | –
COc1ccccc1C(=O)Nc1ccnn1C1CCN(Cc2ccn[nH]2)CC1 | inconclusive: 13 µM [rising, single point] | –
Cc1ccc(S(=O)(=O)NCc2ccccc2)cc1C(=O)N1CCN(c2ccccc2)CC1 | active: 14.6 µM | –
Cc1ccc(-n2[nH]c(C)c(/C=N/Nc3ccc([N+](=O)[O-])cc3[N+](=O)[O-])c2=O)cc1C | inconclusive: 29.1 µM [cytotoxic, single point] | –
C=Cc1ccc(Cn2c(C)c(C(=O)NCc3ccc(Cl)c(Cl)c3)sc2=O)cc1 | inconclusive: 29.1 µM [cytotoxic, single point] | –
NS(=O)(=O)c1ccc(NC(CNS(=O)(=O)c2ccccc2)c2ccccc2)cc1 (configuration not stated) | inactive | –
O=C(c1ccc2c(c1)N(Cc1ccc(F)cc1)C(=O)c1ccccc1S2(=O)=O)N1CCCCCC1 | inactive | –
CCOc1ccc(NC(=O)CSC2=Nc3ccccc3C3=NC(CC(=O)NCc4ccccc4OC)C(=O)N23)cc1 (configuration not stated) | inactive | –
CCc1cccc(NC(=O)c2c(N3CCCC3=O)c3cc(C)ccc3n2C)c1 | inconclusive: 23.1 µM [cytotoxic, single point] | –
Cc1ccc(N2C(=O)Nc3ccccc3S2(=O)=O)cc1Cl | inactive | –
Cc1ccc(CN2CCN(CCCc3ccccc3)CC2CCO)cc1 (configuration not stated) | inactive | –
CCOC(=O)N1CCC(NC(=O)c2cc(COc3ccccc3SC)on2)CC1 | inactive | –
Cc1oc(-c2ccccc2F)nc1CS(=O)(=O)CC(=O)N1CCN(c2ccc(Cl)cc2)CC1 | active: 16.4 µM | –
CC(=O)c1ccc(NC(=O)C2CCCC2)cc1 | inactive | –
Cc1ccc(NC(=O)CSc2nc3c(c(=O)[nH]2)CCC3)cc1Cl | inactive | –
CN(C)/C=C/C(=O)c1cccc(C(F)(F)F)c1 | inactive | –
Cc1nc2cccc(C(=O)NCc3ccccc3)c2o1 | inactive | –
COc1ccc(CN2CCNC(=O)C2CC(=O)NCCC2=CCCCC2)c(F)c1 (configuration not stated) | inactive | –

SMILES | Potency | activity change, negative = cytotoxic
CCCN(CC(=O)Nc1ccccc1C)C(=O)C1CCN(S(=O)(=O)c2ccccc2C(F)(F)F)CC1 | inactive | –
Cc1ccc(OC(C)C(=O)Nc2ccc(C)c(S(=O)(=O)Nc3ccc(C)cc3C)c2)cc1 (configuration not stated) | inconclusive: 29.1 µM [cytotoxic, single point] | –
Cc1cccc(NC(=O)N2C3CCCC2CC(NC(=O)C2CC2)C3)c1 (configuration not stated) | inconclusive: 29.1 µM [rising, single point] | –
CC(C)(C)Nc1nc(C(N)=O)nc(N2CCOCC2)n1 | inconclusive: 29.1 µM [cytotoxic, single point] | –
CCOc1ccc(Nc2c3ccccc3nc3ccccc23)cc1 | active: 5.17 µM | –
Cc1ccccc1NS(=O)(=O)c1ccc2c(c1)NC(=O)CCS2 | inconclusive: 16.4 µM [cytotoxic, single point] | –
Cc1csc(SCC(=O)N(C)C2CCS(=O)(=O)C2)n1 (configuration not stated) | inactive | –
C[C@@H](c1ccccc1)N1C[C@H](COCc2ccccc2)Oc2cc(N3CC[C@H](N(C)C)C3)ccc2S1(=O)=O | inconclusive: 25.9 µM [cytotoxic, single point] | –
Cc1cc(C)c(Cc2c(C)nc3c(C(=O)NCc4ccco4)cnn3c2C)c(C)c1 | active: 20.6 µM | –
S=c1[nH]nc(-c2ccccc2Cl)n1Cc1ccccc1 | inactive | –
COCCN(C(=O)COC(=O)c1ccc2c(c1)OCO2)c1c(N)n(Cc2ccccc2)c(=O)[nH]c1=O | inactive | –
CN(C(=O)c1ccc(NC(=O)Cc2ccc(NC(=O)C3CCN(C(=O)C4CCCC4)CC3)cc2)cc1)C1CC1 | – | inconclusive: -3.99%
CCC(C)Nc1nc(-c2cccc(OC)c2O)nc2ccccc12 (configuration not stated) | inconclusive: 29.1 µM [cytotoxic, single point] | –
CC(C)n1ncc2c(C(=O)N3CCN(c4ccccc4)CC3)cc(-c3ccccc3)nc21 | inconclusive: 23.1 µM [cytotoxic, single point] | –
O=C(O/N=C\c1ccc(N2CCCCC2)c([N+](=O)[O-])c1)c1c(F)cccc1F | inconclusive: 25.9 µM [cytotoxic, single point] | –
CN(Cc1cn[nH]c1-c1cc2ccccc2o1)CC1CCOCC1 | inactive | –
Cc1ccc(C(=O)N(C)CC(=O)Nc2ccc(Cl)c(C(F)(F)F)c2)cc1S(=O)(=O)N1CCCCC1 | inconclusive: 29.1 µM [cytotoxic, single point] | –
O=C(Nc1ccc(Cl)cc1Cl)c1cnn2c1NC(=C1CC1)C=C2C(F)F | inconclusive: 32.6 µM [rising, partial curve, poor fit] | –
Cc1sc2nc(N)sc2c1C | inconclusive: 23.1 µM [cytotoxic, single point] | –
CN(C)c1ccc(C=Nc2ccccc2C(N)=O)cc1 | inconclusive: 20.6 µM [cytotoxic, single point] | –
CC[C@@]1(c2ccccc2C)C(=O)N(C(=O)OC)N1C(=O)OC | inactive | –
Cn1cnnc1SCC(=O)c1cc2ccccc2oc1=O | inactive | –
CCN(CC)c1ccc(/C=C2\SC(=O)N(C(C)C)C2=O)o1 | inconclusive: 29.1 µM [cytotoxic, single point] | –
CCCCN(C=O)c1c(CC)nc2c(OCc3ccc(Cl)cc3Cl)cccn12 | inconclusive: 29.1 µM [cytotoxic, single point] | –
